This data set deals with Human alpha-thrombin (Homo sapiens). Kind of data set: binding assay. The conditions noted are these: purified native protein, protein details: Haematologic Technologies, Inc., single-stranded DNA; for binding signal (% fluorescence vs TBA15-F7 alone): 98.64% without thrombin; for binding signal (% fluorescence vs TBA15-F7 alone) / binding signal (% fluorescence vs TBA15-F8 alone) / binding signal (% fluorescence vs TBA15-F10 alone): RT; for binding signal (% fluorescence vs TBA15-F8 alone): 92.03% without thrombin; for binding signal (% fluorescence vs TBA15-F9 alone): 83.63% without thrombin, Tris, K, Na, Mg, Ca pH 7.5, RT; for binding signal (% fluorescence vs TBA15-F10 alone): 33.69% without thrombin.

For at least one entry, the source does not settle the construct or the ends of the probe. The direction of at least one scale is not stated here.

“ATACGACAGTCCGTGGTAGGGCAGGTTGGGGTGACT [TBA29-D7]”: the binding signal (% fluorescence vs TBA15-F7 alone) ((PEG)6 linker between hybridization sequence ATACGAC and TBA29, FITC/Dabcyl quenching with TBA15-F7, 1:1:1 at 200 nM, label: 5'-Dabcyl) was 69.5.

Regarding GGTTGGTGTGGTTGGGTCGTAGT [TBA15-F8], under “(PEG)6 linker between TBA15 and hybridization sequence GTCGTAGT, FITC/Dabcyl quenching with TBA29-D8, 1:1:1 at 200 nM, label: 3'-FITC”, the binding signal (% fluorescence vs TBA15-F8 alone) was determined as 64.9.

As to GGTTGGTGTGGTTGGGTCGTAT [TBA15-F7], the binding signal (% fluorescence vs TBA15-F7 alone) ((PEG)6 linker between TBA15 and hybridization sequence GTCGTAT, FITC/Dabcyl quenching with TBA29-D7, 1:1:1 at 200 nM, label: 3'-FITC) was found to be 69.5.

On to GGTTGGTGTGGTTGGGTCGTAAGT [TBA15-F9], for which the binding signal (% fluorescence vs TBA15-F9 alone) ((PEG)6 linker between TBA15 and hybridization sequence GTCGTAAGT, FITC/Dabcyl quenching with TBA29-D9, 1:1:1 at 200 nM, displaced by ATIII, label: 3'-FITC) was determined as 30.2.

The sequence “AGCTTACGACAGTCCGTGGTAGGGCAGGTTGGGGTGACT [TBA29-D10]” gave a binding signal (% fluorescence vs TBA15-F10 alone) ((PEG)6 linker between hybridization sequence AGCTTACGAC and TBA29, FITC/Dabcyl quenching with TBA15-F10, 1:1:1 at 200 nM, label: 5'-Dabcyl) of 6.95.

In the case of “ACTTACGACAGTCCGTGGTAGGGCAGGTTGGGGTGACT [TBA29-D9]”, where the note is “(PEG)6 linker between hybridization sequence ACTTACGAC and TBA29, FITC/Dabcyl quenching with TBA15-F9, 1:1:1 at 200 nM, label: 5'-Dabcyl”, the binding signal (% fluorescence vs TBA15-F9 alone) stood at 30.2.

Under “(PEG)6 linker between hybridization sequence ACTACGAC and TBA29, FITC/Dabcyl quenching with TBA15-F8, 1:1:1 at 200 nM, label: 5'-Dabcyl”, “ACTACGACAGTCCGTGGTAGGGCAGGTTGGGGTGACT [TBA29-D8]” gave a binding signal (% fluorescence vs TBA15-F8 alone) of 64.9.

The sequence GGTTGGTGTGGTTGGGTCGTAAGCT [TBA15-F10] had a binding signal (% fluorescence vs TBA15-F10 alone) ((PEG)6 linker between TBA15 and hybridization sequence GTCGTAAGCT, FITC/Dabcyl quenching with TBA29-D10, 1:1:1 at 200 nM, label: 3'-FITC) of 6.95.

These data come from patent US20220372485.
